# The whole screen tested about 340,000 compounds, of which about 170 (0.05%) were called active. This list was built around the results that the source calls inconclusive (neither active nor inactive); the mix of calls is not that of the screen. Calls follow the shape of the dose curve; as a rule, active = well fitted inhibition curve with a large enough effect in the signal ratio, with a control signal flat (not every such curve was filed as active); inconclusive = small, poorly fitted or top-dose-only effect, or effect the other way, or a change in a side signal; inactive = flat fitted curve, though single readings scatter; the % refers to the signal ratio. Potencies of inconclusive entries are doubtful fits and often do not repeat.
# Assay: qHTS Assay to Find Inhibitors of Chronic Active B-Cell Receptor Signaling;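 as to activity change, negative = inhibition: plate controls were basal doxycycline-induced cells for no effect and cells given 10 µM MG132 for full effect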
# Conditions: ABC-DLBCL IkBa-CBG/CBR reporter, luminescence ratio (green luciferase fused to IkBa over red control in TMD8 lymphoma cells), 4 h; activity change, negative = inhibition: at 46.1 µM (top of the series)
# Summary of the method: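 TMD8 ABC-DLBCL cells carrying doxycycline-inducible green luciferase fused to IkappaBalpha plus unfused red luciferase were exposed to compounds (up to 46 uM) for 4 hrs at 37C. Activity came from the overlap-corrected green/red luminescence ratio.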
# Potency is read from the fitted curve at half-maximal effect.
SMILES,Potency,"activity change, negative = inhibition"
CCOc1ccccc1N1CCN(Cc2cn[nH]c2-c2ccc(F)cc2)CC1,"inconclusive: 0.891 µM [falling, partial curve, poor fit]",
COc1ccc(-c2nc(C#N)c(N3CCN(c4cccc(Cl)c4)CC3)o2)cc1OC,,inactive
CCCCOC(=O)Nc1ccc(S(=O)(=O)Nc2nc(C)cc(C)n2)cc1,"inconclusive: 32.6 µM [falling, partial curve, poor fit]",
CCOC(=O)Cn1c(CN(Cc2ccccc2)Cc2ccccc2)nc2c1c(=O)[nH]c(=O)n2C,,inconclusive: -7.82%
N#Cc1nc(-c2ccccc2Cl)oc1N1CCCCC1,,inconclusive: -6.72%
COc1cccc(C2=CC(c3ccc(N(C)C)cc3)n3ncnc3N2)c1 (centres undefined),,inconclusive: -3.2%
Cc1nn(Cc2ccc(Cl)cc2)c(C)c1NC(=O)C(c1ccccc1)c1ccccc1,,inconclusive: -8.62%
COc1ccccc1/C=c1\sc2nc(-c3ccco3)nn2c1=O,,inactive
CCOC(=O)c1ccc(N2C(=O)c3n[nH]c(C)c3C2c2ccco2)cc1 (centres undefined),,inconclusive: -10.1%
COC(=O)c1cnn2c(C(F)(F)F)cc(-c3ccc(F)cc3)nc12,,inactive
CC[C@]12c3[nH]c4ccc(Cl)cc4c3CCN1C(=O)[C@@H](CC(=O)NCC13CC4CC(CC(C4)C1)C3)C[C@@H]2C(=O)N1CCN(C(=O)c2ccco2)CC1,,inconclusive: -2.47%
COc1ccc2nc(C)c(C(N)=O)cc2c1,,inactive
CCOc1ccc(NC(=O)CN(C)C(=O)CN2C(=O)C3CCCCC3C2=O)cc1OCC (centres undefined),,inconclusive: 5.11%
O=C(COC(=O)CCNS(=O)(=O)c1cccs1)Nc1cc(C(F)(F)F)ccc1Cl,,inconclusive: 10.7%
COc1ccc(C(=O)NC(C)c2nnc(SCC(=O)Nc3nc4ccccc4s3)n2C)cc1 (centres undefined),,inconclusive: 4.48%
O=C(CSc1ccccc1)N1CCCC(N2CCN(c3ccccc3)CC2)C1 (centres undefined),,inconclusive: -19.7%
CCNC(=O)COC(=O)/C=C/c1ccccc1[N+](=O)[O-],,inconclusive: -4.43%
COc1ccc(-n2nnnc2SCC(=O)N(C)C2CCS(=O)(=O)C2)cc1 (centres undefined),,inconclusive: 3.29%
CC(=O)Nc1ccc(OCCC[n+]2ccccc2)cc1,,inconclusive: 12.1%
O=C(NNc1cc(Cl)ccc1Cl)C1CCC1,,inconclusive: 7.79%

SMILES,Potency,"activity change, negative = inhibition"
Fc1ccccc1NC(=S)N/N=C/c1ccccc1Br,"inconclusive: 1.84 µM [falling, partial curve, poor fit]",
O=C(O)c1ccc(Nc2nc(-c3cccnc3)cs2)cc1O,"inconclusive: 31.6 µM [falling, partial curve]",
O=C(NC1CCCC1)c1cc(-c2cccc(Cl)c2)on1,"inconclusive: 28.2 µM [falling, partial curve]",
CC(=O)c1ccc(N2CCN(S(=O)(=O)c3cccc4nsnc34)CC2)cc1,,inconclusive: 2.45%
COc1ccc(NC(=O)c2cnc3sccn3c2=O)cc1,,inactive
COc1ccc(-c2nnn(CC(=O)N(c3cccc(O)c3)C(C)C(=O)NC3CCCC3)n2)cc1OC (centres undefined),,inactive
COc1ccc(OC)c(Cc2nnc(CCC(=O)NC3C4CC5CC(C4)CC3C5)o2)c1 (centres undefined),,inconclusive: 1.96%
O=c1[nH]c2ccsc2c(=O)n1-c1ccc(F)c(Cl)c1,,inactive
Nc1c(-c2ccccc2)n[nH]c1-c1ccccc1,"inconclusive: 25.9 µM [rising, single point]",
CN1N=C(C(=O)N2CCc3c([nH]c4ccccc34)C2c2ccccc2Cl)CCC1=O (centres undefined),"inconclusive: 1.78 µM [falling, partial curve]",
O=C(N/N=C/c1c[nH]c2ccccc12)c1ccccc1O,"inconclusive: 35.5 µM [rising, single point]",
Cc1cccn2cc(CCNC(=O)c3cccs3)nc12,"inconclusive: 17.8 µM [falling, partial curve]",
Cc1cc(C)c2c(N)c(C(=O)c3ccc(Cl)cc3)sc2n1,,inconclusive: 2.3%
O=C(c1cc(-c2cccc3ccccc23)nc2ccccc12)N1CCN(CCO)CC1,,inconclusive: 0.842%
CCCOC(=O)C1=C(C)N(C)C(=O)NC1c1cc2c(cc1Br)OCO2 (centres undefined),,inconclusive: -3.79%
O=c1nccc(SCc2ccc(Cl)cc2Cl)[nH]1,,inconclusive: -3.62%
CCC1CCCCN1C(=O)CCc1nnc(Cc2cc(OC)ccc2OC)o1 (centres undefined),,inconclusive: 1.32%
CCOC(=O)c1cccc(N/C=C/C(=O)c2ccc(OC)c(OC)c2)c1,,inconclusive: -20.6%
CC(C)Sc1nc2ccccc2n1CC(=O)O,,inconclusive: 27.8%

# Arranged by molar mass (falling): part of the list above.
SMILES,Potency,"activity change, negative = inhibition"
COc1ccc(-c2nnn(CC(=O)N(c3cccc(O)c3)C(C)C(=O)NC3CCCC3)n2)cc1OC (centres undefined),,inactive
CN1N=C(C(=O)N2CCc3c([nH]c4ccccc34)C2c2ccccc2Cl)CCC1=O (centres undefined),"inconclusive: 1.78 µM [falling, partial curve]",
Cc1cccn2cc(CCNC(=O)c3cccs3)nc12,"inconclusive: 17.8 µM [falling, partial curve]",

# Source: PubChem BioAssay AID493014 (National Center for Advancing Translational Sciences (NCATS), 2011)
